According to PubChem BioAssay AID190 (DTP/NCI, 2004):
The list is a part of this screen's results and no random one: it is rich in T/C values a quarter to a half above the control, in often repeated tests (any T/C) and in doses without a T/C. Further doses and runs are listed elsewhere. T/C: endpoint of the treated group in % of that of the vehicle group. Some doses have a count of surviving animals in place of a T/C: the source files T/C as zero there, which appears to mark a toxic dose or a test without result, not a measured value. Some survivor counts are full or nearly so, which does not show that the dose was tolerated: the source hardly ever lists a survival T/C far under the control, and the zero likely stands for such cases as well. Counts of survivors are from the toxicity check (mostly the fifth day) where no day follows; animals may have died later. Schedule codes are those of the source, taken here to give the interval after Q, in days (D) or hours (H), and the number of doses after X. Some entries were tested several times; their values stand side by side, smallest first. Brackets with × give the number of equal values in this list. For survival time, this PubChem deposit counts one and a half times the control or more as active, and values a quarter to a half above the control carry no call in these data; other NCI protocols may use other cut-offs. Some T/C values are followed by the survivors on the day toxicity was checked, most often the fifth; without a count, all were alive then.

System: AKR/Lw mice, AKR lymphoma ip, median survival T/C
Test: NCI In Vivo Anticancer Drug Screen. Data for tumor model Lymphoma AKR (Transplanted) (intraperitoneal) in AKR/Lw mice
Settings: T/C endpoint: median survival time, vehicle: saline, higher T/C = longer survival
Procedure: The antitumor activity of compounds was measured in mice bearing transplantable tumors. Survival or tumor size were measured and the results are expressed as the measurement made in the treated group (T) divided by the measurement made in the vehicle treated control group (C). The tumor model used in this assay is Lymphoma AKR (Transplanted) (intraperitoneal) in AKR/Lw mice

[1] = dose: 75.0 mg/kg/injection, schedule: Q01DX009 (ip)
[2] = dose: 300.0 mg/kg/injection, schedule: Q01DX001 (ip)
[3] = dose: 400.0 mg/kg/injection, schedule: Q01DX001 (ip)

Q: `O=P1(N(CCCl)CCCl)NCCCO1` (stereo not drawn) was tested. Which T/C [1] did it give?
A: 115 % of control

Q: What about the survivor count [1] of the same compound?
A: 7 of 10, 8 of 10, 10 of 10 (2×)

Q: And the T/C (dose: 100.0 mg/kg/injection, schedule: Q01DX001 (ip), evaluated on day 5)?
A: 172 and 211 % of control

Q: And the T/C (dose: 100.0 mg/kg/injection, schedule: Q01DX001 (ip), evaluated on day 7)?
A: 299 % of control

Q: And the T/C (dose: 100.0 mg/kg/injection, schedule: Q01DX001 (ip), evaluated on day 9)?
A: 145 % of control

Q: What about the T/C (dose: 100.0 mg/kg/injection, schedule: Q01DX001 (ip), evaluated on day 11) of the same compound?
A: 135 % of control

Q: What about the T/C (dose: 100.0 mg/kg/injection, schedule: Q01DX001 (ip), evaluated on day 13) of the same compound?
A: 147 % of control

Q: And the T/C (dose: 100.0 mg/kg/injection, schedule: Q01DX001 (ip), evaluated on day 45)?
A: 150, 166, 177, 182, 186 % of control

Q: What about the T/C (dose: 100.0 mg/kg/injection, schedule: Q01DX001 (ip), evaluated on day 60) of the same compound?
A: 113 [9 of 10 alive], 123, 135, 137 [9 of 10 alive], 139, 140, 147, 165, 170, 172, 177, 181, 191, 205, 208, 211, 222, 236 % of control

Q: And the survivor count (dose: 100.0 mg/kg/injection, schedule: Q01DX001 (ip))?
A: 10 of 10

Q: What about the survivor count (dose: 100.0 mg/kg/injection, schedule: Q01DX009 (ip)) of the same compound?
A: 10 of 10

Q: And the T/C (dose: 100.0 mg/kg/injection, schedule: Q04DX003 (ip), evaluated on day 45)?
A: 168 % of control [9 of 10 alive]

Q: And the T/C (dose: 100.0 mg/kg/injection, schedule: Q04DX003 (ip), evaluated on day 60)?
A: 86, 91, 102, 107, 165 % of control

Q: And the survivor count (dose: 100.0 mg/kg/injection, schedule: Q04DX003 (ip))?
A: 10 of 10

Q: What about the T/C (dose: 100.0 mg/kg/injection, schedule: Q07DX003 (ip)) of the same compound?
A: 139, 140, 153, 218 (2×), 221 % of control

Q: And the T/C (dose: 125.0 mg/kg/injection, schedule: Q04DX003 (ip), evaluated on day 45)?
A: 135, 161, 225, 236 % of control

Q: And the T/C (dose: 125.0 mg/kg/injection, schedule: Q04DX003 (ip), evaluated on day 60)?
A: 188 % of control

Q: What about the T/C (dose: 150.0 mg/kg/injection, schedule: Q01DX001 (ip), evaluated on day 5) of the same compound?
A: 144 and 212 % of control

Q: What about the T/C (dose: 150.0 mg/kg/injection, schedule: Q01DX001 (ip), evaluated on day 7) of the same compound?
A: 301 % of control

Q: And the T/C (dose: 150.0 mg/kg/injection, schedule: Q01DX001 (ip), evaluated on day 9)?
A: 251 % of control

Q: And the T/C (dose: 150.0 mg/kg/injection, schedule: Q01DX001 (ip), evaluated on day 11)?
A: 143 % of control

Q: What about the T/C (dose: 150.0 mg/kg/injection, schedule: Q01DX001 (ip), evaluated on day 45) of the same compound?
A: 168 % of control

Q: What about the T/C (dose: 150.0 mg/kg/injection, schedule: Q01DX001 (ip), evaluated on day 60) of the same compound?
A: 125, 130 [8 of 10 alive], 144, 168 [8 of 10 alive], 197, 212 % of control

Q: And the survivor count (dose: 150.0 mg/kg/injection, schedule: Q01DX001 (ip))?
A: 10 of 10

Q: And the survivor count (dose: 150.0 mg/kg/injection, schedule: Q04DX003 (ip))?
A: 8 of 10

Q: What about the T/C (dose: 200.0 mg/kg/injection, schedule: Q01DX001 (ip), evaluated on day 5) of the same compound?
A: 195 % of control

Q: And the T/C (dose: 200.0 mg/kg/injection, schedule: Q01DX001 (ip), evaluated on day 7)?
A: 301 % of control

Q: And the T/C (dose: 200.0 mg/kg/injection, schedule: Q01DX001 (ip), evaluated on day 9)?
A: 300 % of control

Q: What about the T/C (dose: 200.0 mg/kg/injection, schedule: Q01DX001 (ip), evaluated on day 11) of the same compound?
A: 210 % of control

Q: What about the T/C (dose: 200.0 mg/kg/injection, schedule: Q01DX001 (ip), evaluated on day 13) of the same compound?
A: 195 % of control

Q: What about the T/C (dose: 200.0 mg/kg/injection, schedule: Q01DX001 (ip), evaluated on day 45) of the same compound?
A: 150 [9 of 10 alive], 166, 202 [8 of 10 alive], 264 % of control

Q: What about the T/C (dose: 200.0 mg/kg/injection, schedule: Q01DX001 (ip), evaluated on day 60) of the same compound?
A: 104, 125, 143 [9 of 10 alive], 152, 154, 164, 180, 184, 195, 214, 222, 231 % of control

Q: What about the survivor count (dose: 200.0 mg/kg/injection, schedule: Q01DX001 (ip)) of the same compound?
A: 8 of 10, 9 of 10, 10 of 10

Q: What about the survivor count (dose: 200.0 mg/kg/injection, schedule: Q04DX003 (ip)) of the same compound?
A: 6 of 10, 8 of 10, 9 of 10, 10 of 10

Q: And the survivor count (dose: 200.0 mg/kg/injection, schedule: Q07DX003 (ip))?
A: 10 of 10

Q: And the T/C (dose: 200.0 mg/kg/injection, schedule: Q14DX003 (ip))?
A: 127 % of control

Q: What about the T/C (dose: 250.0 mg/kg/injection, schedule: Q04DX003 (ip), evaluated on day 45) of the same compound?
A: 114 % of control

Q: And the T/C (dose: 250.0 mg/kg/injection, schedule: Q04DX003 (ip), evaluated on day 60)?
A: 91 % of control

Q: What about the survivor count (dose: 250.0 mg/kg/injection, schedule: Q04DX003 (ip)) of the same compound?
A: 8 of 10 and 10 of 10

Q: And the T/C [2]?
A: 102, 145, 145 [9 of 10 alive], 260 % of control

Q: And the survivor count [2]?
A: 9 of 10

Q: And the survivor count (dose: 300.0 mg/kg/injection, schedule: Q04DX003 (ip))?
A: 9 of 10 and 10 of 10

Q: And the T/C [3]?
A: 211 [9 of 10 alive] and 247 % of control [9 of 10 alive]

Q: And the survivor count [3]?
A: 8 of 10

Q: And the survivor count (dose: 400.0 mg/kg/injection, schedule: Q01DX009 (ip))?
A: 4 of 10

Q: And the survivor count (dose: 500.0 mg/kg/injection, schedule: Q01DX001 (ip))?
A: 6 of 10

Q: What about the survivor count (dose: 600.0 mg/kg/injection, schedule: Q01DX001 (ip)) of the same compound?
A: 2 of 10

Q: What about the survivor count (dose: 800.0 mg/kg/injection, schedule: Q01DX001 (ip)) of the same compound?
A: 2 of 10
